Assay results reported in paper PMC4751435.
These are yes or no findings as the source states them, for the method shown. In cells and extracts the contact can be indirect. Some entries that bind do so weakly or less than the wild type. For some of these results: Where a sequence is shown, tags or fusion partners need not be part of it.

Amino acid sequences for entries named in this document (tags omitted). A change or cut given only in a name is not applied to a line headed by its entry. Residues count along the entry.
UniProt O15409: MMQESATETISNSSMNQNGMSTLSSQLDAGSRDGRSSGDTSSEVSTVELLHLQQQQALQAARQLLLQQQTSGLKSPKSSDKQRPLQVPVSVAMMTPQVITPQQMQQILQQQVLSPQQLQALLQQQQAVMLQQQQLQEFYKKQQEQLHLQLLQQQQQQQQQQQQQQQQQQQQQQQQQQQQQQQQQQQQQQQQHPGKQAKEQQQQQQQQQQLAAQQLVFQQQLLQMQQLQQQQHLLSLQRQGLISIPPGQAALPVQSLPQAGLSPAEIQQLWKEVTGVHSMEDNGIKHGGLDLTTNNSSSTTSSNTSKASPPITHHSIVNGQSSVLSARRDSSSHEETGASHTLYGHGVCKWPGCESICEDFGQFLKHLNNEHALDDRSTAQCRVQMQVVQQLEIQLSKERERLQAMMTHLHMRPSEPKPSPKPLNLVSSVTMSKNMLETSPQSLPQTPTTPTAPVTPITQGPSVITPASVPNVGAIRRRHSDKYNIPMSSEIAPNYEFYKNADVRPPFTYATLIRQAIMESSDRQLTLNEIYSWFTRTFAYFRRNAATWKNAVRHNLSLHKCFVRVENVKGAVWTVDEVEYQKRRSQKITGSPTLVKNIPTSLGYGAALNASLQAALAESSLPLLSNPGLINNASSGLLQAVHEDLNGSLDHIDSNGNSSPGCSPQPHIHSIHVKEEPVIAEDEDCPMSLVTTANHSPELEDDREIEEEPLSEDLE
UniProt O75925: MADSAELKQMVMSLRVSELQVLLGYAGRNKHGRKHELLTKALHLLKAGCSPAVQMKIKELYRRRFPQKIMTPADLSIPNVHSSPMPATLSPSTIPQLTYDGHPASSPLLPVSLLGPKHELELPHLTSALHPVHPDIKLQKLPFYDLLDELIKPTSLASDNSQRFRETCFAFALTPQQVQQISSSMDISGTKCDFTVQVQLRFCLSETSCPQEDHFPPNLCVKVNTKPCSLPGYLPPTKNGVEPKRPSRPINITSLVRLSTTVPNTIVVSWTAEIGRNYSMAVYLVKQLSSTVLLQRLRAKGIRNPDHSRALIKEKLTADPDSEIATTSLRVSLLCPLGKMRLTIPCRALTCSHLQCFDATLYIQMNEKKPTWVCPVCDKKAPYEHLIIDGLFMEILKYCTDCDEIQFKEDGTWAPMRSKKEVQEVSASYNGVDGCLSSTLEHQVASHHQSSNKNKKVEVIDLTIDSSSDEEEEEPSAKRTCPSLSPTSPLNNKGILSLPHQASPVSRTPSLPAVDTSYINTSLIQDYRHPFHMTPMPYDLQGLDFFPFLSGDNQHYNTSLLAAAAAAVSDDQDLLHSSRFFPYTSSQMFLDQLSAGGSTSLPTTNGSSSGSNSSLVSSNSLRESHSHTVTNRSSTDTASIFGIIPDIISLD
UniProt O75928: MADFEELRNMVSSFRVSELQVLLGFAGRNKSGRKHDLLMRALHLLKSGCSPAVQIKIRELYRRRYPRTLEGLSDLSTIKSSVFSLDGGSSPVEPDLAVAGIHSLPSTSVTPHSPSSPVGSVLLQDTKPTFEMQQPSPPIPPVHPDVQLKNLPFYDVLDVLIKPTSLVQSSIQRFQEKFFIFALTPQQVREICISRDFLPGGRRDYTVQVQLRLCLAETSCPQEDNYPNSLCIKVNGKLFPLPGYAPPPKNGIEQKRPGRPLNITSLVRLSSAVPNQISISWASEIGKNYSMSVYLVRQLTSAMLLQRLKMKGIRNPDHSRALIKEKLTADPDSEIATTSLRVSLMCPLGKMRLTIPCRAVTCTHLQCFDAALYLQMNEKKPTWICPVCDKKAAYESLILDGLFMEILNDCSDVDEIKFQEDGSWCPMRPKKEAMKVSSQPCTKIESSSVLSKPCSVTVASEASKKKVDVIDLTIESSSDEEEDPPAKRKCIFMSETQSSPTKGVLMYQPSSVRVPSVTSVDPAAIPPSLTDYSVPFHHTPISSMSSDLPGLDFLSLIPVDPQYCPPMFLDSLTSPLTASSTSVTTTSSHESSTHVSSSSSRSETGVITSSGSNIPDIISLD
UniProt P63165, residues 1-97: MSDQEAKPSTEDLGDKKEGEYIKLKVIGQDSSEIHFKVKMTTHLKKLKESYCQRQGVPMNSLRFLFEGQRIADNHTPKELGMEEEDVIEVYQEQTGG
UniProt P61956: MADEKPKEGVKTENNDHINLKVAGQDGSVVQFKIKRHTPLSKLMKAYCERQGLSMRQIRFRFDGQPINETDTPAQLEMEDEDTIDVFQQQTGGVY

Columns and labels:
Assay in all cases: FRET or BRET; BRET in live HEK293 cells transfected with a Renilla luciferase fusion (donor) and a YFP fusion (acceptor); control donor a nuclear-targeted luciferase; mean corrected BRET ratios, n = 3
[1] = biological target: YFP-FOXP2 (wild-type) (human) (UniProt O15409)
[2] = biological target: YFP-PIAS1 (wild-type) (human) (UniProt O75925)
[3] = biological target: YFP-PIAS2 (human) (UniProt O75928)
[4] = biological target: T1, YFP-PIAS4 (human) (UniProt Q8N2W9)
T1 sequence: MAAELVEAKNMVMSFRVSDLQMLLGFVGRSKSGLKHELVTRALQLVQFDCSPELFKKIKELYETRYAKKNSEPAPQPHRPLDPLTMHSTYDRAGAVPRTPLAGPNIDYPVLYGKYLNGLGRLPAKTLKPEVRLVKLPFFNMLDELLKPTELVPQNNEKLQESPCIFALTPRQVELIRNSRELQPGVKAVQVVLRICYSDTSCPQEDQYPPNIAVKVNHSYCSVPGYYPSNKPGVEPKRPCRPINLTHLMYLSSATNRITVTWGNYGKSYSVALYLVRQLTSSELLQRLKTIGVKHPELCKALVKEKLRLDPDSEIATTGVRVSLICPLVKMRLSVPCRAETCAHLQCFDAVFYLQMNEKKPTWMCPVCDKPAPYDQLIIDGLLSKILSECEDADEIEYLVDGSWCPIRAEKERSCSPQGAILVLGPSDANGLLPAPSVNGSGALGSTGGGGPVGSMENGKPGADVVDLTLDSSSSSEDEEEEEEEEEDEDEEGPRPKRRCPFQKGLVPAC

[5] = biological target: YFP-SUMO1 (wild-type, GG) (human) (UniProt P63165)
[6] = biological target: T2, YFP-PIAS3 (human) (UniProt Q9Y6X2)
T2 sequence: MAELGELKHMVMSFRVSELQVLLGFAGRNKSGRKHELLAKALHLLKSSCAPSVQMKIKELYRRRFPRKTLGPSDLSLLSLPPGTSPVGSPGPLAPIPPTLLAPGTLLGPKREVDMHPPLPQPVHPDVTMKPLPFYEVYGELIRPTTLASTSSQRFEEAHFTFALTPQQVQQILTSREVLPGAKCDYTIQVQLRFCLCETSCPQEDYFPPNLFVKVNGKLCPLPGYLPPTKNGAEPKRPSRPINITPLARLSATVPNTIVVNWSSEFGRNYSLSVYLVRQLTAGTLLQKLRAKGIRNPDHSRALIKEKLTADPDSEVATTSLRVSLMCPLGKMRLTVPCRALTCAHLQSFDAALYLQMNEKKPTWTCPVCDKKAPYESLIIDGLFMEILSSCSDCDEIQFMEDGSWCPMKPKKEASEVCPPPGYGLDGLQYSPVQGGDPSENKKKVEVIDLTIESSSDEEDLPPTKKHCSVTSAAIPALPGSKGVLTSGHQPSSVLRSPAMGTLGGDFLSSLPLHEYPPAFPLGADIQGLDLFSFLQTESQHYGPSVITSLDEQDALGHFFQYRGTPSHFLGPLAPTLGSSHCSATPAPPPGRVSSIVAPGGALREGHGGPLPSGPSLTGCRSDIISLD

[7] = biological target: YFP-SUMO2 (wild-type, GG) (human) (UniProt P61956)

| Substance | binding [1] | binding [2] | binding [3] | binding [4] | binding [5] | binding [6] | binding [7] |
| --- | --- | --- | --- | --- | --- | --- | --- |
| luciferase-FOXP2 truncation 1-487 (from UniProt O15409 1-487) (domain or fragment) | binds | binds | – | – | – | – | – |
| luciferase-FOXP2 truncation 1-258 (from UniProt O15409 1-258) (domain or fragment) | – | binds | – | – | – | – | – |
| luciferase-FOXP2 (wild-type, full-length 1-715) (from UniProt O15409 1-715) | binds | binds | binds weakly | binds | binds | binds | binds |
| luciferase-FOXP2 K674R mutant (from UniProt O15409 1-715) | binds | – | – | – | – | – | binds |
| luciferase-FOXP2 truncation 1-329 (from UniProt O15409 1-329) (domain or fragment) | – | binds | – | – | – | – | – |
